Results published in article doi:10.1101/2025.10.23.684158.
Results are given in words; binding and its absence hold for the method and conditions named. Binding seen in cells or lysates may run through a third protein. Some results given as binding are weak or reduced against the parent protein; the word gives no strength. For some of these results: Where a sequence is shown, tags or fusion partners need not be part of it.

The chains behind the UniProt entries cited, without tags or fusion partners.
UniProt Q8CIG8: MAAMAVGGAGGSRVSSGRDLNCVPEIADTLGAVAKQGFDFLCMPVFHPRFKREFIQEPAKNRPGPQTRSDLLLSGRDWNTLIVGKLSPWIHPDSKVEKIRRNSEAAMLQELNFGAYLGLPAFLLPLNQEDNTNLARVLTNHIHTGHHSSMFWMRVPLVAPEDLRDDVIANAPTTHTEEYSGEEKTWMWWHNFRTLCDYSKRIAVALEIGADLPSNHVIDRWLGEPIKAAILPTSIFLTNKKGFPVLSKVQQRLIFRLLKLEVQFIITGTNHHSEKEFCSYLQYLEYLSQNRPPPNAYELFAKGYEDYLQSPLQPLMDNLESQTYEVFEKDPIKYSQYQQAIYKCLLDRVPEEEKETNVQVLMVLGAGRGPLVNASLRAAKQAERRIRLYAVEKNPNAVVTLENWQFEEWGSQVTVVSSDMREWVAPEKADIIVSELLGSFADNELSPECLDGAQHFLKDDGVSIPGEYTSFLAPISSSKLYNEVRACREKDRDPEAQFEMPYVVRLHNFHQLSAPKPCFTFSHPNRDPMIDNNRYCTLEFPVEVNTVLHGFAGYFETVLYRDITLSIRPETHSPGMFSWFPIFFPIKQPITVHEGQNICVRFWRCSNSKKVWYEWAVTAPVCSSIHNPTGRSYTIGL
UniProt P09528: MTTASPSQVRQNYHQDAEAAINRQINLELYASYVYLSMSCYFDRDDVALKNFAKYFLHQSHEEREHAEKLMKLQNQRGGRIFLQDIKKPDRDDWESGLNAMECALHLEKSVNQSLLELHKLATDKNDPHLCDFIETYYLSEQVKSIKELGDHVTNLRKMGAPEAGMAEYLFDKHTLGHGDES

Columns and labels:
Assay in all cases: co-IP
[1] = target: T1, nuclear receptor coactivator 4 (NCOA4) (mouse (endogenous in murine peritoneal macrophages)) (UniProt Q5U4H9)
T1 sequence: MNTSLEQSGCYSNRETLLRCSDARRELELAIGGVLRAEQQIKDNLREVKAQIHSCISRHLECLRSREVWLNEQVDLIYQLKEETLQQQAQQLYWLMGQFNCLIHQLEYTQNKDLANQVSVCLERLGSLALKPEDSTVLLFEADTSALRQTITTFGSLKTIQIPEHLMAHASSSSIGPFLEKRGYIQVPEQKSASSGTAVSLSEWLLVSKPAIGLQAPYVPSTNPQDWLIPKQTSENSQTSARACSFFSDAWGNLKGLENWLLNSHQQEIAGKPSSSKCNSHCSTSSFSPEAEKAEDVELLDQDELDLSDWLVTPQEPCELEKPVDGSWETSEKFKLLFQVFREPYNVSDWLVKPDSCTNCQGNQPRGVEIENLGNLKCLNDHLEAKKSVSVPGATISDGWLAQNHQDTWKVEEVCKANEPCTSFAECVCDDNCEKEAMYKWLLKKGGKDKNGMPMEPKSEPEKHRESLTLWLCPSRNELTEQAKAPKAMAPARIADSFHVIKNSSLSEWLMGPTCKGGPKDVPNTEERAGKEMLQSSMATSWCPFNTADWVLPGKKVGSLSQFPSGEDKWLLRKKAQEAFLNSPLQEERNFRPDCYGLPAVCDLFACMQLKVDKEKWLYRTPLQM

[2] = target: T2, NCOA4-HA (pcDNA 3.1-NCOA4-HA OE) (mouse) (UniProt Q5U4H9)
T2 sequence: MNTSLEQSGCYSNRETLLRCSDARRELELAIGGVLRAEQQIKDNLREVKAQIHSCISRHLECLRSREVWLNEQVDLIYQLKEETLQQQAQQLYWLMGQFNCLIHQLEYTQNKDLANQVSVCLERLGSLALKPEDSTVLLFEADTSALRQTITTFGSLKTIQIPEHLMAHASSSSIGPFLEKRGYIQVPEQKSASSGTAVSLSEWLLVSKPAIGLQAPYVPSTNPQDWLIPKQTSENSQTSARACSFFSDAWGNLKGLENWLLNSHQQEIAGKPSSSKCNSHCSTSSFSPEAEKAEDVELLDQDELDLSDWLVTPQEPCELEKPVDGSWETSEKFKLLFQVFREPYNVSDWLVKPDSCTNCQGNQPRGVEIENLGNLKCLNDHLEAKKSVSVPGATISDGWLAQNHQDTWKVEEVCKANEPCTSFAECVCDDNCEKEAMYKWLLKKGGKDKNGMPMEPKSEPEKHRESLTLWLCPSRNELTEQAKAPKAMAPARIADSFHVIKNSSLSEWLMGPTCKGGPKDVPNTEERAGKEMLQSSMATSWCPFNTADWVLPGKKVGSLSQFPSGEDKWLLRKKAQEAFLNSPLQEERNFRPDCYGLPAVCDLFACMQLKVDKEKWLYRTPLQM

[3] = target: protein arginine methyltransferase 5 (PRMT5) (mouse (endogenous in murine macrophages)) (UniProt Q8CIG8)

## ferritin heavy chain (from UniProt P09528 1-182)
[1]
  binding: binds
[2]
  binding: binds

B1: vitamin D3 receptor (receptor, UniProt P48281 1-422)
chain: MEAMAASTSLPDPGDFDRNVPRICGVCGDRATGFHFNAMTCEGCKGFFRRSMKRKALFTCPFNGDCRITKDNRRHCQACRLKRCVDIGMMKEFILTDEEVQRKREMIMKRKEEEALKDSLRPKLSEEQQHIIAILLDAHHKTYDPTYADFRDFRPPIRADVSTGSYSPRPTLSFSGDSSSNSDLYTPSLDMMEPASFSTMDLNEEGSDDPSVTLDLSPLSMLPHLADLVSYSIQKVIGFAKMIPGFRDLTSDDQIVLLKSSAIEVIMLRSNQSFTLDDMSWDCGSQDYKYDITDVSRAGHTLELIEPLIKFQVGLKKLNLHEEEHVLLMAICIVSPDRPGVQDAKLVEAIQDRLSNTLQTYIRCRHPPPGSHQLYAKMIQKLADLRSLNEEHSKQYRSLSFQPENSMKLTPLVLEVFGNEIS
[1]
  binding: binds

B2: nuclear receptor coactivator 4 (NCOA4) (protein, UniProt Q5U4H9 1-625)
chain: MNTSLEQSGCYSNRETLLRCSDARRELELAIGGVLRAEQQIKDNLREVKAQIHSCISRHLECLRSREVWLNEQVDLIYQLKEETLQQQAQQLYWLMGQFNCLIHQLEYTQNKDLANQVSVCLERLGSLALKPEDSTVLLFEADTSALRQTITTFGSLKTIQIPEHLMAHASSSSIGPFLEKRGYIQVPEQKSASSGTAVSLSEWLLVSKPAIGLQAPYVPSTNPQDWLIPKQTSENSQTSARACSFFSDAWGNLKGLENWLLNSHQQEIAGKPSSSKCNSHCSTSSFSPEAEKAEDVELLDQDELDLSDWLVTPQEPCELEKPVDGSWETSEKFKLLFQVFREPYNVSDWLVKPDSCTNCQGNQPRGVEIENLGNLKCLNDHLEAKKSVSVPGATISDGWLAQNHQDTWKVEEVCKANEPCTSFAECVCDDNCEKEAMYKWLLKKGGKDKNGMPMEPKSEPEKHRESLTLWLCPSRNELTEQAKAPKAMAPARIADSFHVIKNSSLSEWLMGPTCKGGPKDVPNTEERAGKEMLQSSMATSWCPFNTADWVLPGKKVGSLSQFPSGEDKWLLRKKAQEAFLNSPLQEERNFRPDCYGLPAVCDLFACMQLKVDKEKWLYRTPLQM
[3]
  binding: binds
